# Source: the supplement of paper PMC6411743
# By UniProt entry, the sequences of proteins in these tests, tags left out. Where a name states a change or a piece, a line headed by the entry shows the natural chain unless it says otherwise.
# UniProt Q08AM6: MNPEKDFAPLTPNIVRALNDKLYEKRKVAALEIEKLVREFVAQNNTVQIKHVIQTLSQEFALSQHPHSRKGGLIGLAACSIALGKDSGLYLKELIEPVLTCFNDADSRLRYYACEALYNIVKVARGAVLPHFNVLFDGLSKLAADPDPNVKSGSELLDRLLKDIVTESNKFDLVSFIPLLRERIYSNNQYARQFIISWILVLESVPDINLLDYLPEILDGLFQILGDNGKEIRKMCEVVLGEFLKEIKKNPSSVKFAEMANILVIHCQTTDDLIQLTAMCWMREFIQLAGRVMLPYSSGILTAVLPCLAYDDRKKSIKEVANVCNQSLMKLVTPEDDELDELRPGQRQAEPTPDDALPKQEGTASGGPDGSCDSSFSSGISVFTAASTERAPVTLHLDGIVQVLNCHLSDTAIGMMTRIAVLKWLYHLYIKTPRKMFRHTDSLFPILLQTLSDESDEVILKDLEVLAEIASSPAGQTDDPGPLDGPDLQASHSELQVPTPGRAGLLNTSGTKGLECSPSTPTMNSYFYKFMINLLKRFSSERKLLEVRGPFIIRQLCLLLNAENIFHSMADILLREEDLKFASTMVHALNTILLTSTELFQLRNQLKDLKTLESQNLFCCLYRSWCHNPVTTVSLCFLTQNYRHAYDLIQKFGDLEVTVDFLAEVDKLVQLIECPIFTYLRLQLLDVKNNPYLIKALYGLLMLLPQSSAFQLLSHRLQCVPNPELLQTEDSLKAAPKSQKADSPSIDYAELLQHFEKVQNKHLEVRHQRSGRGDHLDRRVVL
# UniProt Q01518, whole entry: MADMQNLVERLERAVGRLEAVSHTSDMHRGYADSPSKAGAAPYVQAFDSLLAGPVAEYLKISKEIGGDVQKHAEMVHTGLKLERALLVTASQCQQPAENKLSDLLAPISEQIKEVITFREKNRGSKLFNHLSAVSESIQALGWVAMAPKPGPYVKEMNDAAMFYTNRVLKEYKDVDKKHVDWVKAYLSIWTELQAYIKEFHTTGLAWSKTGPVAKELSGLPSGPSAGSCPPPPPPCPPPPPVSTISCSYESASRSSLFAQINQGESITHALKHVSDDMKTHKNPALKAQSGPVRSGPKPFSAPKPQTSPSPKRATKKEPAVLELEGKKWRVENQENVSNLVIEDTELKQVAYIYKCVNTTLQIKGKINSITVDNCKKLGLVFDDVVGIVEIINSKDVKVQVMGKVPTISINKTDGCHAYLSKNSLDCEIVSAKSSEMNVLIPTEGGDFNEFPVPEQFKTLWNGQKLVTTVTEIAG
# UniProt Q04656: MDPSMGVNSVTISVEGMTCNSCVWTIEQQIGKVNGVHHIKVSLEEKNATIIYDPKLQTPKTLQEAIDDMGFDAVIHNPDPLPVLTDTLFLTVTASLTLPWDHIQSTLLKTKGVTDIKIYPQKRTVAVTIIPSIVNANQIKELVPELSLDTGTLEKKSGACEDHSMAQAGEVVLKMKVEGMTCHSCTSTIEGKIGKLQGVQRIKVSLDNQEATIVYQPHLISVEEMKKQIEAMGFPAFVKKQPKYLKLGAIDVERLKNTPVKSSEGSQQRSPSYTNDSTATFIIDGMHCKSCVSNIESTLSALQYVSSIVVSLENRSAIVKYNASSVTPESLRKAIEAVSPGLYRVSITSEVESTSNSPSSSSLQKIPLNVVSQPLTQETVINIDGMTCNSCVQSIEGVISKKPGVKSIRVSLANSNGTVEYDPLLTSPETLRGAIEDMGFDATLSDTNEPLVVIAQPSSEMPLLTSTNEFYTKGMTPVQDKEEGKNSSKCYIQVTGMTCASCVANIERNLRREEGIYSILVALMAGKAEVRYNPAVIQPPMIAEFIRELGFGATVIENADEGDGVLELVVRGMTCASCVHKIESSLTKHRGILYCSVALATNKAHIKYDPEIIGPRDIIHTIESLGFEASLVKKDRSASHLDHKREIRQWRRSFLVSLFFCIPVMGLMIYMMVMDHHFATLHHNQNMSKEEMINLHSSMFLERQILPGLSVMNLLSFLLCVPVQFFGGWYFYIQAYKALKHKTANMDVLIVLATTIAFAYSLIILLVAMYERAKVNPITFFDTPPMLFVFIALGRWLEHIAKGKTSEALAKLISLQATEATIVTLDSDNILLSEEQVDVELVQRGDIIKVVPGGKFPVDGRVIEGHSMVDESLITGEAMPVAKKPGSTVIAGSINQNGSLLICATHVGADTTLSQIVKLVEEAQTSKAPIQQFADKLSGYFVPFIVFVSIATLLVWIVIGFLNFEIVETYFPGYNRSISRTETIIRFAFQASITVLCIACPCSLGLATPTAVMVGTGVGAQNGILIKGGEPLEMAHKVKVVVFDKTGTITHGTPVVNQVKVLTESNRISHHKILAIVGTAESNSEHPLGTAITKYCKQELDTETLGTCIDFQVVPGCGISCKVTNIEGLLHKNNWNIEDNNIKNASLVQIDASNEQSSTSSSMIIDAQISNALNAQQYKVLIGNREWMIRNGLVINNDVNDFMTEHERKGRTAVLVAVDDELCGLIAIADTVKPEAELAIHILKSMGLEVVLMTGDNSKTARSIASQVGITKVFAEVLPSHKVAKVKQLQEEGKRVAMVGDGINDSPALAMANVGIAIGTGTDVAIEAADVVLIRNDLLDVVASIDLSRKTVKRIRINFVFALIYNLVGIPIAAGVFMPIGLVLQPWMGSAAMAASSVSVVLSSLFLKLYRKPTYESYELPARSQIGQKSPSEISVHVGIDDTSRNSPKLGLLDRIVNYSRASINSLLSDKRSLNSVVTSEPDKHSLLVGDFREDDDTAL
# UniProt Q06265, whole entry: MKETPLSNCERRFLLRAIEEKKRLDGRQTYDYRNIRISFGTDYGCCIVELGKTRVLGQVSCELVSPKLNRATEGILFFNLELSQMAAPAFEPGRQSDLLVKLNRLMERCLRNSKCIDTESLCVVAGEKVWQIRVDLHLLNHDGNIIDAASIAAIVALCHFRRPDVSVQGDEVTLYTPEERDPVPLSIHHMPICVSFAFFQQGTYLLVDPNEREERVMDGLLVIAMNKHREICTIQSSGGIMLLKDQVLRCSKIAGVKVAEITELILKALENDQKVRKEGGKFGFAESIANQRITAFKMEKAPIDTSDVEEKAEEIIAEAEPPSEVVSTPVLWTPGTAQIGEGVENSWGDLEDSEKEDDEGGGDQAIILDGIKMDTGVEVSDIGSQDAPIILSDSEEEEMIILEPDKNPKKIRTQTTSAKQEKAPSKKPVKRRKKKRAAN
# UniProt Q08945, whole entry: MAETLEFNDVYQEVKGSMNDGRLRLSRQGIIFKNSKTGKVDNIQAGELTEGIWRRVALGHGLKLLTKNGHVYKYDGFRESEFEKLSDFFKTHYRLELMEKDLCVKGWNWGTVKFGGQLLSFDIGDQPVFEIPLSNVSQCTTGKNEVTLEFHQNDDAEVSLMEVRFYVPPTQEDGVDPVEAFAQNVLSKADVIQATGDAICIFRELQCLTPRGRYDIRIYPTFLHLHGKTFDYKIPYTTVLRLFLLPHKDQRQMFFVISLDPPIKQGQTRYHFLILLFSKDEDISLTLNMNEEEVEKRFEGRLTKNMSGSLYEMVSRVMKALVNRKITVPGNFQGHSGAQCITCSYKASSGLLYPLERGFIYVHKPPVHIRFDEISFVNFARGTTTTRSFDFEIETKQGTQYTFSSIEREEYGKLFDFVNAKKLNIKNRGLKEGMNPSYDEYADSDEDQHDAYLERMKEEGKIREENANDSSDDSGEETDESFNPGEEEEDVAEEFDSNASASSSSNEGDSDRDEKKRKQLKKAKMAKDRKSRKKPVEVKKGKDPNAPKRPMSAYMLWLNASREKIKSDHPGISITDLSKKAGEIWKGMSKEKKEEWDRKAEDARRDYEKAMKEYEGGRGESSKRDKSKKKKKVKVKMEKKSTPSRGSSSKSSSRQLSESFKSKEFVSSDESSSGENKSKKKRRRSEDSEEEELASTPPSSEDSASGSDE
# UniProt Q10713: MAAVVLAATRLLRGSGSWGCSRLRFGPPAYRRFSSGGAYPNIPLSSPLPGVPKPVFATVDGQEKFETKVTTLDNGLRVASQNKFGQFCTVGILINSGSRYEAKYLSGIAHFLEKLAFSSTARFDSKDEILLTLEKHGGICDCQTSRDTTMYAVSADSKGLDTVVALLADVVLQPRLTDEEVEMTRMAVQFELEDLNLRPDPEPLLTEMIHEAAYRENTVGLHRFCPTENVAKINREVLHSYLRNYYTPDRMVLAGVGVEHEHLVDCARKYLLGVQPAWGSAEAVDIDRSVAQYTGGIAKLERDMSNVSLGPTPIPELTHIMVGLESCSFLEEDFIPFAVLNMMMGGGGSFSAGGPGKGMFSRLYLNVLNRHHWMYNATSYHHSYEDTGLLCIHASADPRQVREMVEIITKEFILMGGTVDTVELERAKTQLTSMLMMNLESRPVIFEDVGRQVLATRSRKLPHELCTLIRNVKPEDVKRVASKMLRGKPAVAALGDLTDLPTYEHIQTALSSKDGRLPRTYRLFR
# UniProt Q04760: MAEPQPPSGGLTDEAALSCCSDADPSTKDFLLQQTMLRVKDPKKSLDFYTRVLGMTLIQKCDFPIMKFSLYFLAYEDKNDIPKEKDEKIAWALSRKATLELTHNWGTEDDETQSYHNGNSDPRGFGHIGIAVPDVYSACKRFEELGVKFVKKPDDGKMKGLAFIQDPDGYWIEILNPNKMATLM
# UniProt Q13242, whole entry: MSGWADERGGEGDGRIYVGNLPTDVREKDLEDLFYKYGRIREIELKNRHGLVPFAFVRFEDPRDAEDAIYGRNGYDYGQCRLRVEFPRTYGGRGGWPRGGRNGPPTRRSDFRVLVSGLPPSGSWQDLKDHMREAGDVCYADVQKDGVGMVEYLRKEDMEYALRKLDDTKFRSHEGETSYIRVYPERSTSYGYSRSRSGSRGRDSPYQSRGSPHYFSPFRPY
# UniProt Q04727: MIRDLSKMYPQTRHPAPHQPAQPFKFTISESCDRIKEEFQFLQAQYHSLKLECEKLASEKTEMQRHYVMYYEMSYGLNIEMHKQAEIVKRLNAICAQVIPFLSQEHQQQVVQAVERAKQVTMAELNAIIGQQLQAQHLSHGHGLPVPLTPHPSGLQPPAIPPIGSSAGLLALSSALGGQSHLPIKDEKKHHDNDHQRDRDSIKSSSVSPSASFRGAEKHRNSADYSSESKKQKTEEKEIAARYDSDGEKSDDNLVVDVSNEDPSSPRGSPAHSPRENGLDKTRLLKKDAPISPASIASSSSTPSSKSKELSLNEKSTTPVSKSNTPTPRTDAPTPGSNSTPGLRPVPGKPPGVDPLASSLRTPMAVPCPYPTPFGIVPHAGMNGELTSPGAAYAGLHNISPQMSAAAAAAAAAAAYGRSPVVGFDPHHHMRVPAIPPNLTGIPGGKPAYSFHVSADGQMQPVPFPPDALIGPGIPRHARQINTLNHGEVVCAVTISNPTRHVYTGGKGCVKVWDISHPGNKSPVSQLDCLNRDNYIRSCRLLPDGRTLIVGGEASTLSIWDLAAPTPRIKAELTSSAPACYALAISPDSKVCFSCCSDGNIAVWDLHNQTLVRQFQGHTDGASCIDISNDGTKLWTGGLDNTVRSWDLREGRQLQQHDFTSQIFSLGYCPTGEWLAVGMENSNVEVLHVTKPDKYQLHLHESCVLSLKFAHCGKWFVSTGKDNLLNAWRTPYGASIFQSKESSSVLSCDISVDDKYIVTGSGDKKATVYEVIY
# UniProt Q05048: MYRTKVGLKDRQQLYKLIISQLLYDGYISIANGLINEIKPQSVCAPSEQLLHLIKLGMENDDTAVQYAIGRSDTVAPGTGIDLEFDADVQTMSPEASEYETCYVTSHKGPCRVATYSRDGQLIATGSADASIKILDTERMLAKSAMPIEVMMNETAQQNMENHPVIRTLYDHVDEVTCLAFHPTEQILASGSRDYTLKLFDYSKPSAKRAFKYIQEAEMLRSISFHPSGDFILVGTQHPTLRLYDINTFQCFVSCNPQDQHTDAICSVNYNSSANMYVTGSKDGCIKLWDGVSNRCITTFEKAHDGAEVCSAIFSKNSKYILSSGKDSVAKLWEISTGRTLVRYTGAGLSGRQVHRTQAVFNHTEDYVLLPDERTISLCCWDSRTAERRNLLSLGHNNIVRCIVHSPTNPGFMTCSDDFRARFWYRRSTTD
# UniProt Q01650: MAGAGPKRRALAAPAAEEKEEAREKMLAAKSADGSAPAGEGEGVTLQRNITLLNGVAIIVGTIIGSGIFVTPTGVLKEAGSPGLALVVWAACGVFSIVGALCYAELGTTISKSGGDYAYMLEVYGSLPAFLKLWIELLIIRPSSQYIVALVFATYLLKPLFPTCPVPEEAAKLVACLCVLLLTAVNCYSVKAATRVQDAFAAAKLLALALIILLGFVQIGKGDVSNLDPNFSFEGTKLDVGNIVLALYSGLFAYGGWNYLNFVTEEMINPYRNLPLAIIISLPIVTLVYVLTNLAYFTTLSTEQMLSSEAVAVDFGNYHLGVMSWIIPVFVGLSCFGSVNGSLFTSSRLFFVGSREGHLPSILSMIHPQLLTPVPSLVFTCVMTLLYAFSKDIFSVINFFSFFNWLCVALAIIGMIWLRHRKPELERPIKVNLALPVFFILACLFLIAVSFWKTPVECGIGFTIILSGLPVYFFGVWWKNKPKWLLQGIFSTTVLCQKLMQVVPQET
# ± gives the standard deviation of the averaged measurements. Some of the results follow.
# Compound: Nc1nc2c(ncn2[C@@H]2O[C@H](COP(=O)(O)OP(=O)(O)OP(=O)(O)O)[C@@H](O)[C@H]2O)c(=O)[nH]1 [guanosine triphosphate]
# Test: NP40-soluble protein abundance relative to vehicle (solubility fold change) (ratio); higher = more soluble protein in presence of GTP
# In short: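 In three independent experiments, Jurkat crude lysate made by Dounce homogenisation was treated for 10 min at room temperature and then 3 min at 37 °C with eight concentrations ranging from 0.1 to 10 mM. It was then solubilised with 0.8% NP40 plus benzonase for 60 min at 4 °C and ultracentrifuged. The supernatant was TMT-labelled for LC-MS/MS, and each value is the fold change against the detergent-processed vehicle for the same replicate, using vsn-normalised intensities.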
Target,NP40-soluble protein abundance (concentration: 0.1mM),NP40-soluble protein abundance (concentration: 0.5mM),NP40-soluble protein abundance (concentration: 1mM),NP40-soluble protein abundance (concentration: 2mM),NP40-soluble protein abundance (concentration: 4mM),NP40-soluble protein abundance (concentration: 6mM),NP40-soluble protein abundance (concentration: 8mM),NP40-soluble protein abundance (concentration: 10mM)
DHODH (UniProt Q02127),1.07 ± 0.088,1.01 ± 0.098,0.979 ± 0.1,0.984 ± 0.081,0.994 ± 0.14,0.935 ± 0.085,0.926 ± 0.11,0.906 ± 0.12
VAC14 (UniProt Q08AM6),1.02 ± 0.03,1.06 ± 0.046,1 ± 0.068,1.02 ± 0.049,1.02 ± 0.067,1.03 ± 0.078,1.05 ± 0.11,1.01 ± 0.074
UniProt Q01518 and related entries,0.974 ± 0.016,1.01 ± 0.026,1 ± 0.039,0.973 ± 0.053,0.965 ± 0.038,0.984 ± 0.05,0.998 ± 0.085,0.966 ± 0.071
UniProt Q05086 and related entries,1 ± 0.031,1.01 ± 0.033,0.947 ± 0.038,0.942 ± 0.043,0.929 ± 0.036,0.941 ± 0.049,0.9237 ± 0.0076,0.886 ± 0.036
UniProt Q13425 and related entries,1.09 ± 0.032,1.05 ± 0.081,1.04 ± 0.041,1.06 ± 0.031,1.08 ± 0.027,1.04 ± 0.043,1.1 ± 0.075,1.02 ± 0.068
UniProt Q01813 and related entries,1.05 ± 0.03,1.08 ± 0.07,1.05 ± 0.054,1.04 ± 0.083,1.06 ± 0.084,1.06 ± 0.09,1.04 ± 0.075,0.983 ± 0.06
UniProt Q04656 and related entries,1.01 ± 0.13,1.01 ± 0.059,0.971 ± 0.096,1.01 ± 0.079,0.951 ± 0.052,1.02 ± 0.015,0.972 ± 0.11,0.924 ± 0.087
KEAP1 (UniProt Q14145),1.05 ± 0.15,0.977 ± 0.077,0.918 ± 0.05,0.912 ± 0.16,0.916 ± 0.072,0.913 ± 0.08,0.91 ± 0.043,0.923 ± 0.12
UniProt Q12824 and related entries,1.08 ± 0.014,1.11 ± 0.026,1.13 ± 0.042,1.14 ± 0.1,1.16 ± 0.11,1.17 ± 0.11,1.17 ± 0.16,1.13 ± 0.11
UniProt Q06265 and related entries,1.05 ± 0.032,1.03 ± 0.054,1.03 ± 0.086,1.08 ± 0.11,1.19 ± 0.12,1.16 ± 0.16,1.25 ± 0.16,1.21 ± 0.15
SSRP1 (UniProt Q08945),0.94 ± 0.046,0.927 ± 0.052,0.976 ± 0.011,0.959 ± 0.02,1.06 ± 0.04,1.18 ± 0.041,1.33 ± 0.15,1.69 ± 0.2
UniProt Q13330-3,1.03 ± 0.011,1.08 ± 0.049,1.06 ± 0.045,1.12 ± 0.082,1.11 ± 0.12,1.16 ± 0.16,1.17 ± 0.15,1.14 ± 0.14
PMPCA (UniProt Q10713),0.991 ± 0.017,1.02 ± 0.019,0.934 ± 0.018,0.933 ± 0.027,0.915 ± 0.036,0.904 ± 0.025,0.866 ± 0.014,0.867 ± 0.067
UniProt Q04760 and related entries,0.844 ± 0.078,0.808 ± 0.022,0.92 ± 0.066,0.891 ± 0.038,0.877 ± 0.031,0.882 ± 0.024,0.799 ± 0.1,0.884 ± 0.036
FHL3 (UniProt Q13643),1.14 ± 0.13,1.12 ± 0.22,1.09 ± 0.13,1.05 ± 0.17,1.11 ± 0.2,1.08 ± 0.16,1.13 ± 0.15,1.17 ± 0.19
UniProt Q12789 and related entries,1.08 ± 0.051,1.08 ± 0.093,1.1 ± 0.1,1.13 ± 0.09,1.13 ± 0.1,1.1 ± 0.077,1.1 ± 0.11,1.1 ± 0.11
UniProt Q01543 and related entries,0.967 ± 0.018,0.965 ± 0.062,1.03 ± 0.11,1.02 ± 0.15,0.986 ± 0.092,0.981 ± 0.11,0.998 ± 0.043,0.984 ± 0.066
UniProt Q13242,0.925 ± 0.015,0.928 ± 0.036,1.14 ± 0.064,1.22 ± 0.023,1.3 ± 0.05,1.44 ± 0.058,1.5 ± 0.062,1.71 ± 0.18
PRKCQ (UniProt Q04759),1.07 ± 0.045,1.05 ± 0.046,0.96 ± 0.028,0.957 ± 0.081,0.9 ± 0.051,0.936 ± 0.075,0.915 ± 0.053,0.856 ± 0.099
UniProt Q02880 and related entries,1.08 ± 0.06,1.09 ± 0.065,1.21 ± 0.06,1.37 ± 0.11,1.68 ± 0.17,1.85 ± 0.27,1.99 ± 0.26,2.08 ± 0.34
SLC39A6 (UniProt Q13433),0.893 ± 0.069,0.953 ± 0.093,0.934 ± 0.06,0.914 ± 0.053,0.8761 ± 0.008,0.982 ± 0.061,0.933 ± 0.021,0.989 ± 0.021
Q13888 and related entries (UniProt Q6P1K8+Q13888),1.13 ± 0.22,1.14 ± 0.19,1.12 ± 0.18,1.17 ± 0.15,1.17 ± 0.21,1.15 ± 0.16,1.17 ± 0.24,1.15 ± 0.16
UniProt Q04727 and related entries,0.997 ± 0.048,0.925 ± 0.068,0.919 ± 0.074,0.898 ± 0.097,0.884 ± 0.065,0.91 ± 0.073,0.938 ± 0.079,0.918 ± 0.048
UniProt Q12906 and related entries,0.996 ± 0.013,1.04 ± 0.022,1.1 ± 0.047,1.15 ± 0.085,1.21 ± 0.13,1.25 ± 0.12,1.28 ± 0.18,1.26 ± 0.15
UniProt Q05519 and related entries,1.13 ± 0.071,1.26 ± 0.11,1.39 ± 0.15,1.26 ± 0.14,1.31 ± 0.13,1.25 ± 0.12,1.39 ± 0.19,1.32 ± 0.19
BECN1 (UniProt Q14457),1.018 ± 0.0085,1.04 ± 0.044,1.06 ± 0.045,1.02 ± 0.037,1.06 ± 0.059,1.03 ± 0.066,1.07 ± 0.1,1.02 ± 0.078
HDAC1 (UniProt Q13547),0.939 ± 0.086,1.03 ± 0.1,0.981 ± 0.078,0.987 ± 0.12,0.978 ± 0.14,1.07 ± 0.17,1.04 ± 0.16,1.01 ± 0.1
UniProt Q14671 and related entries,0.981 ± 0.026,0.967 ± 0.028,0.988 ± 0.035,0.931 ± 0.063,0.909 ± 0.067,0.924 ± 0.075,0.948 ± 0.012,0.94 ± 0.028
CSTF1 (UniProt Q05048),1.06 ± 0.038,1.07 ± 0.094,0.969 ± 0.057,1.04 ± 0.12,1.04 ± 0.12,1.09 ± 0.14,1.03 ± 0.075,0.986 ± 0.017
SLC7A5 (UniProt Q01650),0.923 ± 0.013,0.918 ± 0.015,0.952 ± 0.036,0.908 ± 0.063,0.915 ± 0.064,0.927 ± 0.089,0.951 ± 0.034,0.947 ± 0.083

# Reprinted at random: two entries already listed, in no set order.
Target,NP40-soluble protein abundance (concentration: 0.1mM),NP40-soluble protein abundance (concentration: 0.5mM),NP40-soluble protein abundance (concentration: 1mM),NP40-soluble protein abundance (concentration: 2mM),NP40-soluble protein abundance (concentration: 4mM),NP40-soluble protein abundance (concentration: 6mM),NP40-soluble protein abundance (concentration: 8mM),NP40-soluble protein abundance (concentration: 10mM)
UniProt Q12789 and related entries,1.08 ± 0.051,1.08 ± 0.093,1.1 ± 0.1,1.13 ± 0.09,1.13 ± 0.1,1.1 ± 0.077,1.1 ± 0.11,1.1 ± 0.11
UniProt Q06265 and related entries,1.05 ± 0.032,1.03 ± 0.054,1.03 ± 0.086,1.08 ± 0.11,1.19 ± 0.12,1.16 ± 0.16,1.25 ± 0.16,1.21 ± 0.15
